About 2,100 (0.66%) of roughly 320,000 compounds were called active. The inconclusive results got no clear call from the source; some entries with a clear call stand among them for comparison. The call rests on the fitted dose curve; in most records, active means well fitted inhibition curve with a large enough effect in the signal ratio, with a control signal flat (not every such curve was filed as active); inconclusive means small, poorly fitted or top-dose-only effect, or effect the other way, or a change in a side signal; inactive means flat fitted curve, though single readings scatter; the % refers to the signal ratio. Potencies beside an inconclusive call are fits to weak or partial responses and may not hold up.
experiment: qHTS Assay for Lipid Storage Modulators in Drosophila S3 Cells; conditions: BODIPY lipid droplet fluorescence, 18-24 h, cells fed with added oleic acid; lipid storage change, negative = inhibition: at 46.1 µM (top of the series) unless noted
How it was run: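 Drosophila S3 cells got compounds at several concentrations plus oleic acid (400 uM solution). Laser-scanning cytometry with 488 nm excitation read lipid droplets at 500-530 nm and cells at 575-640 nm. Percent activity was relative to 20 uM Triacsin C.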
On the % scale 0 is the no-effect control and ±100 the full control effect; potency means the concentration at half of the fitted maximal effect.

SMILES	lipid storage change, negative = inhibition	Potency
CC1(C)CC(=O)C(C=NCC2CCN(C(=O)Nc3ccc(Cl)c(Cl)c3)CC2)=C(O)C1	inconclusive: -33.1% [at 0.0737 µM]	–
Cc1n[nH]c(=O)c2c(NC(=O)CSc3ccccc3Cl)oc(C)c12	inconclusive: 23%	–
O=C(CCCc1nc2ccccc2s1)NCc1cccnc1	–	inconclusive: 5.17 µM [rising, partial curve, poor fit]
O=C(CN1CCc2ccccc21)NN1CC(=O)N(c2ccc(Cl)cc2)CC1=O	inconclusive: -1.16%	–
O=C1c2ccsc2SCCN1Cc1ccc(Cl)cc1	inconclusive: 28.1%	–
O=C1CCN(Cc2ccccc2)CCN1CCSc1ccccc1	inconclusive: 20.4%	–
CCCNC(=O)c1ccccc1NC(=O)Cc1ccc(OC)c(S(=O)(=O)N2CCOCC2)c1	inconclusive	–
CO/N=C/CC(=O)c1cnc(-c2ccc(Cl)cc2)s1	inconclusive: -5.84%	–
O=C(Nc1nc(-c2ccc(-c3ccccc3)cc2)cs1)C1=COCCO1	–	inconclusive: 16.4 µM [falling, partial curve, poor fit]
CC(C)CN(CCNC(=O)CN1C(=O)COc2ccc(S(=O)(=O)N3CCOCC3)cc21)CC(C)C	inconclusive: 10.6%	–
CC(C)(C)C(=O)Nc1ccccc1C(=O)NCc1cccnc1	inconclusive: 1.97%	–
COc1cccc(NC(=O)C2CC(=O)n3cnnc3S2)c1 (stereo not given)	inactive: -20.3%	–
COC(=O)c1cc(S(=O)(=O)N2CCN(c3cccc(C)c3)C(C)C2)c[nH]1 (stereo not given)	inconclusive: -20.7%	–
COC(=O)Nc1ccc(S(=O)(=O)n2cnc3ccccc32)cc1	inconclusive: -17.1%	–
CC(=O)Nc1ccc(S(=O)(=O)NCCC(=O)NCCCc2ccccc2)cc1	–	active: 1.64 µM
Cc1ccc(N=C(NOCc2ccc(Cl)cc2Cl)c2nonc2N)c(C)c1	inconclusive: -28.8%	–
O=C(Nc1ccc(N2CCCCC2)c(Cl)c1)c1cccnc1	–	inconclusive: 29.1 µM [falling, single point]
COc1ccc(CN2CC(=O)N(c3ccc(C)c(C)c3)C2=S)cc1OC	inconclusive: 2.37%	–
O=C(/C=C/c1cccs1)Nc1ccc(N2CCOCC2)c(S(=O)(=O)Nc2ccccc2Cl)c1	–	inconclusive: 0.0046 µM [activator, full curve, poor fit]
CCS(=O)(=O)N1CCN(S(=O)(=O)c2ccc3c(c2)OCCO3)CC1	–	inconclusive: 6.51 µM [activator, single point]
CCCCC(=O)Nc1c(C)cc(C)cc1Cl	inconclusive: 52.3%	–
COc1ccc(N(CC(=O)Nc2ccccc2C(=O)N2CCOCC2)S(=O)(=O)c2ccc(F)cc2)cc1	inconclusive: -2.33%	–
COc1cc(CN2CCN(Cc3ccc(C(F)(F)F)cc3)CC2)cc(OC)c1OC	inconclusive: -29.6%	–
O=Nc1c2ccc[nH]c-2c2ccc([N+](=O)[O-])cc12	inconclusive: -8.14%	–
CCn1c2ccccc2c2nnc(SCC(=O)NC3CCS(=O)(=O)C3)nc21 (stereo not given)	inconclusive: 4.72%	–
Cc1ccc(S(=O)(=O)NCC(C)n2nc(C)nc2C)cc1 (stereo not given)	–	inconclusive: 2.31 µM [activator, single point]
O=C(/C=C/c1ccccc1[N+](=O)[O-])NC1CCCC1	inconclusive: -54.8% [at 0.00295 µM]	–

SMILES	lipid storage change, negative = inhibition	Potency
COc1cccc(CC(=O)NC2CCCN(Cc3ccccc3F)C2)c1 (stereo not given)	inconclusive: 35.3%	–
Cn1cc(/C=C/C(=O)c2ccccc2)c2ccccc21	–	inconclusive: 3.26 µM [activator, partial curve]
O=C(NCCNC(=O)c1ccccc1O)c1ccccc1O	–	active: 9.2 µM
O=C(c1cc(-c2ccco2)on1)N1CCN(C(c2ccccc2)c2ccccc2)CC1	–	inconclusive: 14.6 µM [falling, single point]
COc1cccc(CN(C)C(=O)CCN(c2ccccc2)S(=O)(=O)c2ccc(C)cc2)c1OC	–	inconclusive: 29.1 µM [falling, single point]
Cn1c2ccccc2n2c(=O)c(=O)n(CC(=O)c3ccc(F)cc3)nc12	inconclusive: 9.43%	–
OCCNc1cc(-n2nc(-c3ccccc3)cc2-c2ccccc2)ncn1	inconclusive: 0.579%	–
COc1ccc(NC(=O)CN(C)C(=O)CCC2CCCC2)cc1	–	inconclusive: 29.1 µM [activator, single point]
Cn1c(N)c(C(=O)COC(=O)c2nc(Cl)ccc2Cl)c(=O)n(C)c1=O	inconclusive: 17%	–
O=C(CSc1nc2ccccc2n1CC(=O)N1CCOCC1)N1CCCC1	inconclusive: -9.07%	–
CC(C)(C)N1C(=O)Cc2c1nc(N)c1c(N)nc(N3CCCCC3CO)c(C#N)c21 (stereo not given)	inconclusive: 13.9%	–
Cc1nc2ccccn2c1C(=O)CSc1cccc(Cl)c1	inconclusive: -3.25%	–
CN(c1ccccc1)S(=O)(=O)c1cccc(NC(=O)COC(=O)C2CCCCC2)c1	inconclusive: -3.31%	–
Oc1ccc(NCc2ccccc2OCc2ccccc2F)cc1	–	inconclusive: 10.3 µM [activator, single point]
Cc1ccc(CN(C(=O)COc2ccc(Br)cc2)C2CCS(=O)(=O)C2)o1 (stereo not given)	inconclusive: 52.2%	–
CC(/C=N/NC(=O)c1cc(-c2ccc(C)s2)[nH]n1)=C\c1ccccc1	–	inconclusive: 29.1 µM [cytotoxic, single point]
CCOc1ccc(S(=O)(=O)/N=C(/c2ccccc2)N(C)C)cc1	–	inconclusive: 14.6 µM [activator, single point]
O=C(CSc1ncn[nH]1)Nc1ccc(Cl)c(S(=O)(=O)N2CCOCC2)c1	inconclusive: 7.27%	–
Cc1cccc(N(CC(=O)NCc2ccccc2)C(=O)Cn2nnc(-c3ccc(C)o3)n2)c1	inconclusive: 33.8%	–
Cc1ccccc1OCC1CNC(=O)O1 (stereo not given)	inactive: 1.82%	–
CC(NC(=O)CN1C(=O)NC2(CCCCCC2)C1=O)c1ccccc1Cl (stereo not given)	–	inconclusive: 1.16 µM [activator, full curve]
O=C(NCCc1ccncc1)Nc1ccc(Cl)cc1	inconclusive: 39.2%	–
COc1ccccc1OCCNC(=O)c1ccc2c(c1)CCC2	inconclusive: 96.4%	–
CCOC(=O)c1[nH]c2ccc(OC)cc2c1NC(=O)CN1CCSCC1	–	inconclusive: 7.31 µM [activator, partial curve]
CS(=O)(=O)c1ccc(C(=O)Nc2cc(-c3ccccc3)nn2-c2ccccc2)cc1	inconclusive: 2.61%	–
COc1ccc(-c2ccc3c(c2)c(-c2cccs2)c(-c2cc(OC)cc(OC)c2)n3C)cc1	inconclusive: 7.03%	–
CCn1c(SCC(=O)NC2CC2)nnc1C(C)Oc1ccccc1 (stereo not given)	inactive: 5.84%	–

An excerpt of these results, as comma-separated lines:
SMILES,"lipid storage change, negative = inhibition",Potency
O=C(NCCNC(=O)c1ccccc1O)c1ccccc1O,–,active: 9.2 µM
OCCNc1cc(-n2nc(-c3ccccc3)cc2-c2ccccc2)ncn1,inconclusive: 0.579%,–

Three compounds from above, ordered by molecular weight, largest number first.
SMILES	lipid storage change, negative = inhibition	Potency
O=C(CSc1ncn[nH]1)Nc1ccc(Cl)c(S(=O)(=O)N2CCOCC2)c1	inconclusive: 7.27%	–
O=C(c1cc(-c2ccco2)on1)N1CCN(C(c2ccccc2)c2ccccc2)CC1	–	inconclusive: 14.6 µM [falling, single point]
OCCNc1cc(-n2nc(-c3ccccc3)cc2-c2ccccc2)ncn1	inconclusive: 0.579%	–

Continued.

SMILES	lipid storage change, negative = inhibition	Potency
CC(=O)Nc1ccc(S(=O)(=O)NCCSCc2cccc(Cl)c2)cc1	inconclusive: -12.7%	–
CC(C)(C)c1cc(OC(=O)C2CCCC2)ccc1O	inconclusive: -15.3%	–
COc1ccc(CN2CCN(CCC(C)C)C(CCO)C2)cc1Cn1cncn1 (stereo not given)	inconclusive: 23%	–
O=C(CN1C(=O)CCC1=O)Nc1ccc2c3c(cccc13)CC2	inconclusive: 20.9%	–
c1ccc(CCN(Cc2ccccc2)Cc2nc(C3CC3)no2)cc1	inconclusive: -15.3%	–
O=C(O)c1ccc2c(c1)OCCOCCOCCOCCOCCO2	–	inconclusive: 0.13 µM [falling, full curve, poor fit]
Cc1ccccc1NC(=S)N(Cc1cccs1)C1CCCC1	inconclusive: 75.7%	–
CC(C)c1ccc(S(=O)(=O)N2CCN(C(=O)CCNC(=O)Nc3ccccc3)CC2)cc1	inconclusive: 6.7%	–
O=C(NC1CCCC1)C1CCN(S(=O)(=O)c2ccccc2)CC1	inconclusive: -23.1%	–
Clc1ccc(CSc2nnc(-c3ccncc3)o2)c(Cl)c1	inconclusive: 14.7%	–
CCn1c(C)[n+](CC)c2ccc(C(=O)N(C)c3ccccc3)cc21	inactive: -2.21%	–
Cc1ccc2nc(N3C(=O)CNC3=S)sc2c1	inconclusive: -39.2%	–
CC(=O)Nc1cccc(NC(=O)c2cccc(OCc3ccccc3)c2)c1	inactive: 8.52%	–
C/C(Cl)=C/Cn1c(SCCN2CCOCC2)nc2c1c(=O)[nH]c(=O)n2C	inconclusive: 32.1%	–
COc1cc(-c2nc3ccccn3c2NCC2CCCO2)ccc1O (stereo not given)	inconclusive: 22.2%	–
Cc1ccc2cc(C#N)c(NCCNC(=O)C3CCC3)nc2c1C	–	inconclusive: 2.31 µM [activator, full curve]
O=C(CC1Nc2ccccc2NC1=O)Nc1ccccc1NC(=O)CC1Nc2ccccc2NC1=O (stereo not given)	–	inconclusive: 20.6 µM [activator, single point]
COc1cccc(NC(=O)N2CCN(c3ccc(C(F)(F)F)cn3)CC2)c1	inconclusive: 7.08%	–
COc1ccc(NC(=O)CN2CCN(S(=O)(=O)c3ccc(C(C)C)cc3)CC2)cc1OC	inconclusive: 8.16%	–
COc1ccc(NC(=O)CCNS(=O)(=O)c2ccc(NC(C)=O)cc2)cc1Cl	inconclusive: 95.2%	–
CC1CN(C(=O)N2CCCCC2)CCN1C(=O)N1CCCCC1 (stereo not given)	inconclusive: -2.78%	–
CC1CCCCN1S(=O)(=O)c1ccc(C(=O)Nc2nnc(-c3cccs3)o2)cc1 (stereo not given)	inconclusive: -2.53%	–
CC/C(=N\NC(=O)c1nnn(-c2nonc2N)c1-c1ccc2c(c1)OCO2)c1ccccc1	–	inconclusive: 29.1 µM [activator, single point]
O=C(CCC(=O)N(CC(=O)NC1CCCCC1)Cc1ccccc1)Nc1ccccn1	inconclusive: -24.1%	–
COCc1nc2ccccc2n1Cc1ccccc1Br	inconclusive: 44.2%	–
CCOC(=O)C1=C(COC(=O)CCCOc2ccccc2)NC(=O)NC1C (stereo not given)	inconclusive	–

— PubChem BioAssay AID2685 (National Center for Advancing Translational Sciences (NCATS), 2010)
